Laboratory results from US20230295226A1.
Results are given in words; binding and its absence hold for the method and conditions named. Some results given as binding are weak or reduced against the parent protein; the word gives no strength.

Molecular target: T1, asialofetuin (UniProt P12763)
T1 sequence (glycoprotein; desialylated glycans, described as L-fucose bearing, looked up): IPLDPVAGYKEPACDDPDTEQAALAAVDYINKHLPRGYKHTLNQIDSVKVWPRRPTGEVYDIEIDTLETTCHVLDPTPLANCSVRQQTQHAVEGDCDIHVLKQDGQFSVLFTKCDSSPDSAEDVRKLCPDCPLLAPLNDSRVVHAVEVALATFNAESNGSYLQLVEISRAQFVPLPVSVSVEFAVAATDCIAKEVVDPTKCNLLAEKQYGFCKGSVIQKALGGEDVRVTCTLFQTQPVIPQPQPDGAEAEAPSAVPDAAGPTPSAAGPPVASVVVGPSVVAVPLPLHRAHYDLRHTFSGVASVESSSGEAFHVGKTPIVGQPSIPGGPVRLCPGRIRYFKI
Assay: ITC

binding: binds
B1: Odorranalectin (OL) (peptide)
peptide: YASPKCFRYPNGVLACT
modifications: cyclic through a disulfide bond Cys6-Cys16 (cyclo[C6...C16])
